In PubChem BioAssay AID493014 (National Center for Advancing Translational Sciences (NCATS), 2011):
Hit rate of the full screen: of about 340,000 compounds, about 170 (0.05%) were called active. This list was built around the results that the source calls inconclusive (neither active nor inactive); the mix of calls is not that of the screen. The call rests on the fitted dose curve; in most records, active means well fitted inhibition curve with a large enough effect in the signal ratio, with a control signal flat (not every such curve was filed as active); inconclusive means small, poorly fitted or top-dose-only effect, or effect the other way, or a change in a side signal; inactive means flat fitted curve, though single readings scatter; the % refers to the signal ratio. Potencies beside an inconclusive call are fits to weak or partial responses and may not hold up.

Assay: qHTS Assay to Find Inhibitors of Chronic Active B-Cell Receptor Signaling;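 on activity change, negative = inhibition: plate controls were basal doxycycline-induced cells for no effect and cells given 10 µM MG132 for full effect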
Conditions: ABC-DLBCL IkBa-CBG/CBR reporter, luminescence ratio (green luciferase fused to IkBa over red control in TMD8 lymphoma cells), 4 h; activity change, negative = inhibition: at 46.1 µM (top of the series) unless noted
Method in brief: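 Concentration-response series (up to 46 uM) were applied to TMD8 dual-reporter cells for 4 h at 37C with doxycycline. Green/red ratio, after filter-overlap correction, defined %Activity; red signal alone was normalised to basal cells and zero luminescence.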
Potency means the concentration at half of the fitted maximal effect.

Compound	Potency	activity change, negative = inhibition
O=C(Nc1nnc(-c2ccccc2Cl)o1)c1cccnc1	inconclusive: 23.1 µM [falling, partial curve]	–
O=C(Nc1ccc(N2CCOCC2)c(S(=O)(=O)Nc2ccc(Cl)cc2)c1)c1cnccn1	–	inactive: -7.37%
O=C(NCCC1=CCCCC1)c1cnsn1	–	inconclusive: -2.96%
CC#CCN(CC#CC)S(=O)(=O)c1ccc(-n2cnnn2)c(OC)c1	–	inconclusive: -0.616%
CCCOc1cccc(-c2cc(-c3n[nH]c(=S)n3CC)c3ccccc3n2)c1	inconclusive: 22.4 µM [activator, single point]	–
CCOc1ccccc1N1CCN(CC(O)COC2CCCc3ccccc32)CC1 (stereo not given)	–	inactive: -5.17%
COc1ccccc1N(C)S(=O)(=O)c1ccc(C(=O)N2CCCc3ccccc32)cc1	–	inconclusive: 8.67%
O=C(O)C[C@@H]1C(=O)O[C@@H]2C(COC(=O)c3cc(O)c(O)c(O)c3)O[C@@H](OC(=O)c3cc(O)c(O)c(O)c3)[C@@H](OC(=O)c3cc(O)c(O)c4c3[C@H]1[C@H](O)C(=O)O4)[C@H]2OC(=O)c1cc(O)c(O)c(O)c1 (stereo not given in full)	–	inconclusive: -1.78%
CCOC(=O)C(C(=O)OCC)C(C(=O)OCC)N1CCOCC1 (stereo not given)	inconclusive: 6.51 µM [falling, single point]	–
CC(C)(C)CC(C)(C)c1ccc(OCCOCC[N+](C)(C)Cc2ccccc2)cc1	–	inconclusive: 17.8%
Cc1ccc([C@H]2C(C#N)=C(N)Oc3cc(C)oc(=O)c32)o1	–	inconclusive: -0.531%
Cc1cc(NNC(=O)c2ccccc2)nc(NNC(=O)c2ccccc2)n1	inconclusive: 14.1 µM [falling, partial curve]	–
CCOCCCNC(=O)CN1C(=O)/C(=C\c2ccc(C)cc2)Sc2ccccc21	–	inconclusive: 6.55%
COc1ccccc1-c1cc(C(F)(F)F)n2ncc(S(=O)(=O)c3ccccc3)c2n1	inconclusive: 35.5 µM [falling, partial curve, poor fit]	–
COC(=O)c1ccc(NC(=S)NN2CCOCC2)cc1	inconclusive: 1.12 µM [falling, full curve, poor fit]	–
CC1Sc2ccc(S(=O)(=O)N(C)Cc3ccccc3)cc2NC1=O (stereo not given)	–	inconclusive: 0.453%
COc1ccc(S(=O)(=O)NC(C)C(=O)NCCN2CCOCC2)cc1Cl (stereo not given)	–	inconclusive: 6.9%
COc1ccccc1N=C(C)C1=C(O)COC1=O	inconclusive: 18.4 µM [falling, partial curve]	–
O=C(Nc1ccc(N2CCCCC2)cc1)c1cc([N+](=O)[O-])cc([N+](=O)[O-])c1	–	inactive: -5.18%
Cc1ccc(NC(=O)COC(=O)CNC(=O)C2CCCCC2)cc1S(=O)(=O)N(C)C	–	inconclusive: -1.63%
C=CC(C)(C)c1c2occc2c(O)c2ccc(=O)oc12	–	inconclusive: -4.27%
CN(C)CCOC(C1CCCCC1)C1CCCCC1	–	inconclusive: -14.4%
CCN(CC(=O)Nc1c(F)cccc1F)C(=O)CNC(=O)c1sc2ccccc2c1Cl	–	inconclusive: 9.09%
Cc1nc(SCC#N)c2c3c(sc2n1)CCC3	–	inconclusive: -5.38%
CCCS(=O)(=O)c1ccc(COC(=O)c2cccc(NC(=O)C(C)C)c2)cc1	–	inconclusive: -20.7%

Compound	Potency	activity change, negative = inhibition
CSCC[C@H](NC(=O)[C@@H]1CSC2c3ccccc3C(=O)N21)C(=O)N1CCC[C@H]1CO (stereo not given in full)	–	inactive: 10.2%
CC(C)(C)c1ccc(C(=O)NC2CCN(Cc3ccccc3)CC2)cc1	–	inactive: -8.22%
O=C(Nc1ccc(-c2cccc(F)c2)cc1)C1CCCN(Cc2ccccn2)C1 (stereo not given)	–	inconclusive: -7.53%
CC(CNc1ccc([N+](=O)[O-])cc1)NC(=O)c1ccccc1Br (stereo not given)	–	inconclusive: 8.67%
Cc1cc(N2CCC(C)CC2)n2ncc(-c3ccccc3)c2n1	–	inconclusive: 9.1%
CN1OC(COC(=O)c2ccccc2)CC1c1ccccc1 (stereo not given)	–	inconclusive: 0.119%
CCC(Oc1ccccc1)C(=O)Nc1ncc([N+](=O)[O-])s1 (stereo not given)	inconclusive: 3.98 µM [rising, partial curve, poor fit]	–
Cc1nc(C)c(-c2csc(NCc3ccco3)n2)s1	–	inconclusive: -0.201%
Cc1c(NC(=O)OCc2ccccc2)c(=O)n(-c2ccccc2)n1C	–	inconclusive: -13.2%
COc1ccc(C(CC(=O)c2ccc(C)cc2)Nc2ccc([N+](=O)[O-])cc2)cc1 (stereo not given)	–	inconclusive: 18.7%
COc1ccc(-c2cc(=O)oc3cc(OCC(=O)N4CCOCC4)ccc23)cc1	–	inactive: -4.03%
COC(=O)[C@@]12CCCN1[C@H](c1ccc(-c3ccc(Cl)c(Cl)c3)c(OC)c1)[C@H]1C(=O)N(C)C(=O)[C@H]12	–	inconclusive: -0.761%
CN(Cc1nccs1)C(=O)c1ccc2nc(Cc3ccccc3F)oc2c1	–	inactive: 4.66%
O=C(COC(=O)Cc1c(F)cccc1Cl)NC(=O)c1ccccc1	–	inconclusive: 7.44%
CCOC(=O)COc1cc(N2C(=O)CSCC2=O)c(Cl)cc1Cl	–	inconclusive: 6.89%
CCCC(=O)NC(c1ccc(OC)cc1)c1ccc2cccnc2c1O (stereo not given)	–	inconclusive: -13.5%
CN(C)CCCNC(=O)C(=O)Nc1ccc2c(c1)N(S(=O)(=O)c1cccs1)CCC2	–	inactive: 17.8%
O=C(CSC(=S)N1CCCC1)N(Cc1nnc(-c2ccccc2Cl)o1)C1CC1	–	inconclusive: -6.4%
COc1ccccc1CCNS(=O)(=O)c1cn(C)c(=O)n(C)c1=O	–	inconclusive: -2.87%
CCN(CC)C(=O)[C@H]1CC(CC(=O)NC/C=C(\C)CCC=C(C)C)C(=O)N2CCc3c([nH]c4ccc(OC)cc34)[C@]12C (stereo not given in full)	inconclusive: 20.6 µM [falling, single point]	–
Cc1cc(-c2sccc2C)nc(-n2cccc2)n1	–	inconclusive: 18.1%
CC(C(=O)NCCS(=O)(=O)c1ccc(Br)cc1)S(=O)(=O)c1ccc(Cl)cc1 (stereo not given)	–	inactive: -1.2%
Cc1nnc2sc(SCc3cccc(Cl)c3)nn2c1=O	–	inconclusive: -14.1%
Cc1c(C(=O)N/N=C/c2ccc(-c3ccccc3[N+](=O)[O-])o2)sc(N)c1C#N	–	inconclusive: 8.87%
Cc1nnc(SCCn2c(N3CCN(C)CC3)nc3c2c(=O)[nH]c(=O)n3C)s1	–	inconclusive: -1.11%

For reference, part of the list above.
Compound	Potency	activity change, negative = inhibition
O=C(CSC(=S)N1CCCC1)N(Cc1nnc(-c2ccccc2Cl)o1)C1CC1	–	inconclusive: -6.4%
COc1ccccc1CCNS(=O)(=O)c1cn(C)c(=O)n(C)c1=O	–	inconclusive: -2.87%
CCN(CC)C(=O)[C@H]1CC(CC(=O)NC/C=C(\C)CCC=C(C)C)C(=O)N2CCc3c([nH]c4ccc(OC)cc34)[C@]12C (stereo not given in full)	inconclusive: 20.6 µM [falling, single point]	–
